Construct, isoform or probe ends are uncertain for at least one entry. A negative result means that nothing was seen under these conditions. Protein sequences can lack the tags named with them.
Molecular target: T1, POT1 (POT1-N) (UniProt Q9NUX5)
T1 sequence (looked up, limits assumed): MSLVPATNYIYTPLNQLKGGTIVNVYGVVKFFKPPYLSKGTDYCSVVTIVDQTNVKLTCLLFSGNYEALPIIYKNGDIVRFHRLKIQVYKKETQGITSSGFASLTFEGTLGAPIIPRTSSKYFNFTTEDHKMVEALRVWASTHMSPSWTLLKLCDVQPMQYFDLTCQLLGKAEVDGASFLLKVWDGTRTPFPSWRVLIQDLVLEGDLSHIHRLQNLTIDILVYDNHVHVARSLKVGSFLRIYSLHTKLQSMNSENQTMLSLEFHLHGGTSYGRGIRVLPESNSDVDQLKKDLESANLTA
Assay: FTSA (SYPRO Orange)
Details: 5 uM POT1, 50 uM DNA, little or no Tm change; 20 mM potassium phosphate, 180 mM KCl, pH 7.2; FTSA 20-99 °C, typically 5 uM POT1 and 50 uM DNA; recombinant protein; protein details: C-terminal 6xHis; folded or branched DNA

**Q.** Does “TGAGGGTGGGTAGGGTGGGTAA [1XAV (modified c-myc promoter G4)]” bind?
**A.** Result: no binding

Reference: publication PMC8009405, “POT1 stability and binding measured by fluorescence thermal shift assays”
